PubChem BioAssay AID1508588 – Peter MacCallum Cancer Centre – 2020
Test: 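Which gene losses make BRAF-mutant melanoma cells more responsive to vemurafenib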 (primary screen). Cell system: human WM266.4 melanoma cells (BRAF V600 mutant). Reagent: siRNA pool against human genes, 40 nM. Timing: 96 h from transfection to read-out. Conditions: vemurafenib 300 nM (about IC25), added 48 h after transfection, for 48 h; comparison arm got DMSO vehicle only. Measurement: 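Ratios to non-targeting siRNA for cell gain, counted as DAPI nuclei after minus before drug and averaged over two replicates, and for absorbance-read medium lactate per cell; both binned into fold-change classes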. Reading the numbers: cell gain with vemurafenib: higher = more cell gain than with non-targeting siRNA; lactate per cell with vemurafenib: higher = more lactate made per cell. Rule for the call: 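a knock-down counts as enhancing when its fold-change classes with vehicle and with vemurafenib, taken together, show a stronger drug effect on cell gain or lactate per cell; exact class pairs not stated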. Meaning of the calls: active = enhances vemurafenib effect; inactive = no enhancement seen.
In all, the deposit lists about 18,000 reagents; this is a random part of them. 790 of them (4.4%) were called active. 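Calls rest on a combination of fold-change classes in drug and vehicle arms, not all shown here.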 Reagent sequences are not shown.

The first 10 entries, ahead of the listing:
no.	gene symbol	PubChem SID	cell gain with vemurafenib	lactate per cell with vemurafenib	Call
1	FRMPD4 (FERM and PDZ domain containing 4)	SID152154394	0.89	0.92	inactive
2	TMEM125 (transmembrane protein 125)	SID135623074	0.27	1.31	inactive
3	MYL10 (myosin light chain 10)	SID134319600	0.65	1.36	inactive
4	RASGRP1 (RAS guanyl releasing protein 1)	SID135621678	0.77	0.46	inactive
5	ZNF430 (zinc finger protein 430)	SID134322771	0.35	0.6	inactive
6	CSTF1 (cleavage stimulation factor subunit 1)	SID135622089	1.12	0.54	inactive
7	CHODL (chondrolectin)	SID134321148	0.6	0.52	inactive
8	TSKS (testis specific serine kinase substrate)	SID56479267	0.55	1.5	inactive
9	STBD1 (starch binding domain 1)	SID135623755	0.3	0.9	inactive
10	FBXO36 (F-box protein 36)	SID152153720	0.74	-0.2	inactive

The listing, from the start:
no.	gene symbol	PubChem SID	cell gain with vemurafenib	lactate per cell with vemurafenib	Call
1	FRMPD4 (FERM and PDZ domain containing 4)	SID152154394	0.89	0.92	inactive
2	TMEM125 (transmembrane protein 125)	SID135623074	0.27	1.31	inactive
3	MYL10 (myosin light chain 10)	SID134319600	0.65	1.36	inactive
4	RASGRP1 (RAS guanyl releasing protein 1)	SID135621678	0.77	0.46	inactive
5	ZNF430 (zinc finger protein 430)	SID134322771	0.35	0.6	inactive
6	CSTF1 (cleavage stimulation factor subunit 1)	SID135622089	1.12	0.54	inactive
7	CHODL (chondrolectin)	SID134321148	0.6	0.52	inactive
8	TSKS (testis specific serine kinase substrate)	SID56479267	0.55	1.5	inactive
9	STBD1 (starch binding domain 1)	SID135623755	0.3	0.9	inactive
10	FBXO36 (F-box protein 36)	SID152153720	0.74	-0.2	inactive
11	OR8U8 (olfactory receptor family 8 subfamily U member 8)	SID135625174	1.24	0.6	inactive
12	FBXO5 (F-box protein 5)	SID134316706	0.73	0.86	inactive
13	CD40LG (CD40 ligand)	SID135622033	1	0.89	inactive
14	GABPB1 (GA binding protein transcription factor subunit beta 1)	SID152148790	0.56	0.95	inactive
15	TGM6 (transglutaminase 6)	SID152151288	0.89	0.14	active
16	UFC1 (ubiquitin-fold modifier conjugating enzyme 1)	SID152153222	0.82	1.66	inactive
17	DCP1A (decapping mRNA 1A)	SID152156325	0.32	2	inactive
18	KCNN2 (potassium calcium-activated channel subfamily N member 2)	SID135621171	0.65	0.86	inactive
19	FRAT2 (FRAT regulator of Wnt signaling pathway 2)	SID135622313	0.94	0.6	inactive
20	H2AJ (H2A.J histone)	SID152152477	0.5	1.99	inactive
21	LY6D (lymphocyte antigen 6 family member D)	SID135622349	0.86	0.8	inactive
22	NQO2 (N-ribosyldihydronicotinamide:quinone dehydrogenase 2)	SID152154087	0.62	0.57	inactive
23	PTDSS2 (phosphatidylserine synthase 2)	SID134313800	0.61	0.92	inactive
24	UCK1 (uridine-cytidine kinase 1)	SID56478768	1.29	0.6	inactive
25	LARP7 (La ribonucleoprotein 7, transcriptional regulator)	SID152155821	0.36	1.41	inactive
26	MOSPD2 (motile sperm domain containing 2)	SID152156695	0.96	0.82	inactive
27	AGPAT5 (1-acylglycerol-3-phosphate O-acyltransferase 5)	SID135621593	0.43	0.92	inactive
28	DUT (deoxyuridine triphosphatase)	SID135621907	0.96	1.1	inactive
29	VRK2 (VRK serine/threonine kinase 2)	SID152152279	0.56	0.74	inactive
30	GABRD (gamma-aminobutyric acid type A receptor subunit delta)	SID134311590	0.36	2.25	inactive
31	C3orf52 (chromosome 3 open reading frame 52)	SID152155240	0.43	0.39	inactive
32	PAPLN (papilin, proteoglycan like sulfated glycoprotein)	SID135624900	0.85	0.82	inactive
33	CSGALNACT2 (chondroitin sulfate N-acetylgalactosaminyltransferase 2)	SID134319956	0.44	1.16	inactive
34	ADAM20 (ADAM metallopeptidase domain 20)	SID152151134	1.1	0.34	inactive
35	ACE2 (angiotensin converting enzyme 2)	SID134311184	0.51	1.06	inactive
36	NUP98 (nucleoporin 98 and 96 precursor)	SID152147776	0.18	1.34	inactive
37	RAB3D (RAB3D, member RAS oncogene family)	SID135622006	0.87	0.75	inactive
38	IL16 (interleukin 16)	SID152148873	0.54	0.52	inactive
39	RTP2 (receptor transporter protein 2)	SID135624395	0.77	1.38	inactive
40	AGO1 (argonaute RISC component 1)	SID134310557	0.15	1.84	inactive
41	KCNAB3	SID134313695	0.87	0.78	inactive
42	COX11 (cytochrome c oxidase copper chaperone COX11)	SID134316154	1.04	0.86	inactive
43	DELE1 (DAP3 binding cell death enhancer 1)	SID134324641	0.64	0.66	inactive
44	C8A (complement C8 alpha chain)	SID135622059	0.43	0.7	inactive
45	CHRD (chordin)	SID134315842	0.55	1.38	inactive
46	ZNF689 (zinc finger protein 689)	SID134319646	0.77	0.65	inactive
47	TBC1D16 (TBC1 domain family member 16)	SID134323210	0.8	0.66	inactive
48	NPEPL1 (aminopeptidase like 1)	SID152147965	0.13	0.36	active
49	EPPK1 (epiplakin 1)	SID152147795	1.34	0.78	inactive
50	EFCAB12 (EF-hand calcium binding domain 12)	SID134325757	0.5	1.38	inactive
51	ADGRA2 (adhesion G protein-coupled receptor A2)	SID134310983	0.11	0.96	inactive
52	TMEM59L (transmembrane protein 59 like)	SID135622314	0.23	0.56	inactive
53	ROBO3 (roundabout guidance receptor 3)	SID134326565	-0.08	2.36	inactive
54	KRTAP19-7 (keratin associated protein 19-7)	SID134322452	0.39	1.1	inactive
55	FCN3 (ficolin 3)	SID134312836	0.92	0.41	inactive
56	TAS2R42 (taste 2 receptor member 42)	SID134313952	0.77	1.58	inactive
57	FNBP1 (formin binding protein 1)	SID152150614	1.05	0.7	inactive
58	THAP2 (THAP domain containing 2)	SID152154311	0.76	0.68	active
59	SLC8A2	SID152151457	0.47	1.34	inactive
60	CHMP4C (charged multivesicular body protein 4C)	SID152154849	0.38	1.94	inactive
61	WT1 (WT1 transcription factor)	SID152147201	0.72	1.58	inactive
62	CDC25C (cell division cycle 25C)	SID152148969	0.3	1.47	inactive
63	KLRA1P (killer cell lectin like receptor A1, pseudogene)	SID152156587	0.66	0.45	inactive
64	IFNA5 (interferon alpha 5)	SID135622355	0.63	1.3	inactive
65	FAM90A1 (family with sequence similarity 90 member A1)	SID152155034	0.96	1.03	inactive
66	DLG2 (discs large MAGUK scaffold protein 2)	SID152155470	1.08	0.86	inactive
67	TUSC1 (tumor suppressor candidate 1)	SID135624822	1.24	1.07	inactive
68	HUS1 (HUS1 checkpoint clamp component)	SID135620649	0.75	1.26	inactive
69	OR5M1 (olfactory receptor family 5 subfamily M member 1)	SID135624855	0.75	0.55	inactive
70	GPR108 (G protein-coupled receptor 108)	SID152153649	0.57	0.68	inactive
71	PIAS2 (protein inhibitor of activated STAT 2)	SID152154401	0.48	1.7	inactive
72	ZNF766 (zinc finger protein 766)	SID135624405	0.67	0.97	inactive
73	BID (BH3 interacting domain death agonist)	SID135620819	1.51	0.56	inactive
74	OR9A2 (olfactory receptor family 9 subfamily A member 2)	SID152147645	0.58	1.12	inactive
75	RABGGTA (Rab geranylgeranyltransferase subunit alpha)	SID152152606	0.63	0.54	inactive
76	CXCL14 (C-X-C motif chemokine ligand 14)	SID152147274	0.91	0.78	inactive
77	OTOF (otoferlin)	SID134316253	0.58	0.56	inactive
78	PLEKHA4 (pleckstrin homology domain containing A4)	SID134324438	0.38	1.19	inactive
79	LY6H (lymphocyte antigen 6 family member H)	SID135623786	0.72	0.73	inactive
80	SLC39A13	SID134312614	0.51	0.74	inactive
81	FAM177A1 (family with sequence similarity 177 member A1)	SID152153873	0.28	1.25	inactive
82	RCAN2 (regulator of calcineurin 2)	SID152147642	0.69	0.96	inactive
83	SRF (serum response factor)	SID152151503	0.56	0.49	inactive
84	WFIKKN1	SID152148960	0.5	0.58	inactive
